Reference: PubChem BioAssay AID1159584 (Peter MacCallum Cancer Centre, 2016)
Here is an unselected part of about 18,000 deposited reagents. Not stated in the record: the amount of reagent, the time to read-out.

- Assay: 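Knock-downs that harm CDH1-null cells more than parental MCF10A cells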 (primary screen)
- System: human MCF10A breast epithelial cells, parental and CDH1-null
- Knock-down reagent: siRNA against human genes
- Read-out: 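ATP luminescence (CellTiter-Glo) viability per line relative to mean mock wells over all plates, and the ratio of CDH1-null to parental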
- Direction: CDH1-null / parental viability ratio: higher = CDH1-null cells survive relatively better than parental; CDH1-null viability vs mock: higher = more viable CDH1-null cells; parental viability vs mock: higher = more viable parental cells

| Target gene | CDH1-null / parental viability ratio | CDH1-null viability vs mock (fraction of mock) | parental viability vs mock (fraction of mock) |
| --- | --- | --- | --- |
| CUL7 (GeneID 9820) | 0.97 | 0.66 | 0.68 |
| WRAP73 (GeneID 49856) | 1.13 | 1.04 | 0.92 |
| TNF (GeneID 7124) | 0.94 | 0.77 | 0.82 |
| CDPF1 (GeneID 150383) | 1.11 | 0.8 | 0.72 |
| CPXM2 (GeneID 119587) | 1 | 0.84 | 0.84 |
| CYP2W1 (GeneID 54905) | 0.86 | 0.79 | 0.92 |
| CPNE5 (GeneID 57699) | 0.82 | 0.66 | 0.8 |
| APBA1 (GeneID 320) | 1.05 | 0.65 | 0.62 |
| ARHGAP1 (GeneID 392) | 0.81 | 0.7 | 0.86 |
| EEF1D (GeneID 1936) | 1 | 0.78 | 0.78 |
| SET (GeneID 6418) | 1.43 | 0.83 | 0.58 |
| TSPYL5 (GeneID 85453) | 1.15 | 0.9 | 0.78 |
| MUC16 (GeneID 94025) | 0.93 | 0.4 | 0.43 |
| CEP85L (GeneID 387119) | 1.04 | 1.03 | 0.99 |

Targets listed so far whose gene name begins with C or c:
| Target gene | CDH1-null / parental viability ratio | CDH1-null viability vs mock (fraction of mock) | parental viability vs mock (fraction of mock) |
| --- | --- | --- | --- |
| CUL7 (GeneID 9820) | 0.97 | 0.66 | 0.68 |
| CDPF1 (GeneID 150383) | 1.11 | 0.8 | 0.72 |
| CPXM2 (GeneID 119587) | 1 | 0.84 | 0.84 |
| CYP2W1 (GeneID 54905) | 0.86 | 0.79 | 0.92 |
| CPNE5 (GeneID 57699) | 0.82 | 0.66 | 0.8 |
| CEP85L (GeneID 387119) | 1.04 | 1.03 | 0.99 |

Continued:
| Target gene | CDH1-null / parental viability ratio | CDH1-null viability vs mock (fraction of mock) | parental viability vs mock (fraction of mock) |
| --- | --- | --- | --- |
| HHAT (GeneID 55733) | 0.72 | 0.61 | 0.85 |
| OR2T33 (GeneID 391195) | 1.07 | 0.64 | 0.6 |
| PAN2 (GeneID 9924) | 1 | 0.76 | 0.76 |
| OR8B8 (GeneID 26493) | 1.05 | 0.46 | 0.44 |
| PIK3CA (GeneID 5290) | 0.78 | 0.59 | 0.76 |
| OR51B2 (GeneID 79345) | 1.28 | 1.01 | 0.79 |
| PILRB (GeneID 29990) | 0.84 | 0.56 | 0.67 |
| NECTIN4 (GeneID 81607) | 0.77 | 0.49 | 0.64 |
| OAS1 (GeneID 4938) | 1.17 | 0.82 | 0.7 |
| NADK (GeneID 65220) | 0.86 | 0.6 | 0.7 |
| RSAD1 (GeneID 55316) | 1.08 | 0.79 | 0.73 |
| CD3D (GeneID 915) | 1.12 | 1.02 | 0.91 |
| WDR19 (GeneID 57728) | 1.05 | 0.6 | 0.57 |
| NHS (GeneID 4810) | 1.25 | 1.16 | 0.93 |
